In publication PMC10443802 (JCI Insight, 2023) one finds Log2FoldChange data, which are given here for 52 compounds.

In this series the test system is OATP1B2. In words: Untargeted metabolomics of plasma and DRG, WT vs OATP1B2-deficient mice. It is filed as in vivo, mouse. The settings on record: untargeted metabolomics, WT vs OATP1B2-deficient mice.
Setting [1] is: supplement sheet "Figure 5B" (volcano plot).
The mark [2] stands for this setting: Figure 5B source data (volcano plot), log2 fold change of metabolite level.

In the case of `CCCCCCCC/C=C\CCCCCC/C=C\OCC(COP(=O)(O)OCCN)OC(=O)CCCCCCC/C=C\CCCCCCCC` (stereo not shown), the Log2FoldChange (sheet "Figure 5C") was -0.1681.

As to `CCCCC/C=C\C/C=C\C/C=C\C/C=C\CCCC(=O)O[C@H](CO/C=C\CCCCCCCCCCCCCC)COP(=O)([O-])OCC[N+](C)(C)C`, the Log2FoldChange reads like this: under setting [1], 0.546; (sheet "Figure 5C") -0.08927.

For the compound `CCCCC/C=C\C/C=C\C/C=C\C/C=C\CCCC(=O)O[C@H](CO/C=C\CCCCCCCCCCCCCC)COP(=O)(O)OCCN`, the Log2FoldChange reads like this: under setting [1], 0.4222; (sheet "Figure 5C") -0.2009.

As to `CCCCC/C=C\C/C=C\CCCCCCCC(=O)O[C@H](CO/C=C\CCCCCCCCCCCCCC)COP(=O)([O-])OCC[N+](C)(C)C`, the Log2FoldChange under setting [1] was 0.3103 and the Log2FoldChange (sheet "Figure 5C") is -0.08927.

Regarding `CCCCC/C=C\C/C=C\CCCCCCCC(=O)O[C@H](COC=CCCCCCCCCCCCCCC)COP(=O)(O)OCCN`, the Log2FoldChange reads like this: under setting [1], 0.4222; (sheet "Figure 5C") -0.2345.

Compound `CCCCCCCC/C=C\CCCCCCCC(=O)O[C@H](CO/C=C\CCCCCCCCCCCCCC)COP(=O)([O-])OCC[N+](C)(C)C` returned a Log2FoldChange under setting [1] of 0.251.

Consider `CCCCCCCCC=CCCCCCCCC(=O)OC(COC=CCCCCCCCCCCCCCC)COP(=O)(O)OCCN` (stereo not shown), for which the Log2FoldChange is 0.4005 under setting [1] and -0.2863 (sheet "Figure 5C").

As for `CCCCCCCCCCCCCC/C=C/OCC(COP(=O)([O-])OCC[N+](C)(C)C)OC(=O)CCCCCCCCCCCCCCC` (stereo not shown), the Log2FoldChange reads like this: under setting [1], 0.3103; (sheet "Figure 5C") -0.1681.

`CCCCC/C=C\C/C=C\C/C=C\C/C=C\CCCC(=O)O[C@H](CO/C=C\CCCCCCCCCCCCCCCC)COP(=O)(O)OCCN` had a Log2FoldChange under setting [1] of 0.4114 and a Log2FoldChange (sheet "Figure 5C") of -0.1203.

`CCCCC/C=C\C/C=C\CCCCCCCC(=O)O[C@H](CO/C=C\CCCCCCCCCCCCCCCC)COP(=O)(O)OCCN` came in with a Log2FoldChange under setting [1] of 0.3448.

Consider `CCCCCCCCC=CCCCCCCCC(=O)OC(COC=CCCCCCCCCCCCCCCCC)COP(=O)(O)OCCN` (stereo not shown), for which the Log2FoldChange under setting [1] is 0.3785 and the Log2FoldChange (sheet "Figure 5C") is -0.3219.

The compound `CCCCC/C=C\C/C=C\C/C=C\C/C=C\CCCC(=O)O[C@H](COC(=O)CCCCCCC/C=C\C/C=C\CCCCC)COP(=O)([O-])OCC[N+](C)(C)C` yielded a Log2FoldChange under setting [1] of 0.4436 and a Log2FoldChange (sheet "Figure 5C") of 0.1763.

As to `CCCCC/C=C\C/C=C\C/C=C\C/C=C\CCCC(=O)O[C@H](COC(=O)CCCCCCC/C=C\C/C=C\CCCCC)COP(=O)(O)OCCN`, the Log2FoldChange under setting [1] worked out at 0.5656 and the Log2FoldChange (sheet "Figure 5C") is reported as 0.08406.

Under setting [1], `CCC=CCC=CCC=CCCCCCCCC(=O)OC(COC(=O)CCCCCCCC=CCC=CCCCCC)COP(=O)([O-])OCC[N+](C)(C)C` (stereo not shown) showed a Log2FoldChange of 0.5945.

`CCCCC/C=C\C/C=C\C/C=C\C/C=C\CCCC(=O)O[C@H](COC(=O)CCCCCCCCCCCCC)COP(=O)([O-])OCC[N+](C)(C)C`: the Log2FoldChange (sheet "Figure 5C") is given as 0.2016.

For `CC/C=C\C/C=C\C/C=C\C/C=C\C/C=C\C/C=C\CCC(=O)O[C@H](COC(=O)CCCCCCC/C=C\CCCCCCCC)COP(=O)([O-])OCC[N+](C)(C)C`, the Log2FoldChange is 0.4222 under setting [1] and -0.08927 (sheet "Figure 5C").

For `CC/C=C\C/C=C\C/C=C\C/C=C\C/C=C\C/C=C\CCC(=O)O[C@H](COC(=O)CCCCCCC/C=C\CCCCCCCC)COP(=O)(O)OCCN`, the Log2FoldChange is listed as 0.3103 under setting [1] and -0.152 (sheet "Figure 5C").

Under setting [1], `CC/C=C\C/C=C\C/C=C\CCCCCCCC(=O)O[C@H](COC(=O)CCCCCCC/C=C\CCCCCC)COP(=O)([O-])OCC[N+](C)(C)C` came in with a Log2FoldChange of 0.8953.

Take `CCCCC/C=C\C/C=C\CCCCCCCC(=O)O[C@H](COC(=O)CCCCCCC/C=C\CCCCCC)COP(=O)([O-])OCC[N+](C)(C)C`: where the note is “sheet "Figure 5C"”, the Log2FoldChange was found to be 0.

Take `CCCCC/C=C\C/C=C\C/C=C\C/C=C\CCCC(=O)O[C@H](COC(=O)CCCCCCCCCCCCCCC)COP(=O)([O-])OCC[N+](C)(C)C`: the Log2FoldChange (supplement sheet "Figure 5B") is on record as 0.1375 and the Log2FoldChange (sheet "Figure 5C") was found to be 0.

Regarding `CCCCC/C=C\C/C=C\C/C=C\C/C=C\CCCC(=O)OC(COC(=O)CCCCCCCCCCCCCCC)COP(=O)(O)OCCN` (stereo not shown), the Log2FoldChange is recorded as 0.111 (supplement sheet "Figure 5B") and -0.08927 (sheet "Figure 5C").

As to `CCCCC/C=C\C/C=C\C/C=C\C/C=C\CCCC(=O)O[C@H](COC(=O)CCCCCCCCCCCCCCC)COP(=O)(O)OC1C(O)C(O)C(O)C(O)C1O` (stereo partly shown), the Log2FoldChange (sheet "Figure 5C") is listed as -0.4344.

Compound `CC/C=C\C/C=C\C/C=C\C/C=C\C/C=C\C/C=C\CCC(=O)O[C@H](COC(=O)CCCCCCCCCCCCCCC)COP(=O)([O-])OCC[N+](C)(C)C` yielded a Log2FoldChange (supplement sheet "Figure 5B") of 0.111 and a Log2FoldChange (sheet "Figure 5C") of -0.08927.

On to `CC/C=C\C/C=C\C/C=C\C/C=C\C/C=C\C/C=C\CCC(=O)O[C@H](COC(=O)CCCCCCCCCCCCCCC)COP(=O)(O)OCCN`, for which the Log2FoldChange is given as 0.1375 (supplement sheet "Figure 5B") and -0.074 (sheet "Figure 5C").

As for `CCCCCC/C=C\CCCCCCCC(=O)O[C@H](COC(=O)CCCCCCCCCCCCCCC)COP(=O)([O-])OCC[N+](C)(C)C`, where the note is “sheet "Figure 5C"”, the Log2FoldChange was -0.152.

`CCCCC/C=C\C/C=C\C/C=C\C/C=C\CCCC(=O)O[C@H](COC(=O)CCCCCCCCCCCCCCCCC)COP(=O)(O)OCCN` showed a Log2FoldChange (sheet "Figure 5C") of -0.1681.

In turn, `CCCCC/C=C\C/C=C\C/C=C\C/C=C\CCCC(=O)OC(COC(=O)CCCCCCCCCCCCCCCCC)COP(=O)(O)OC1C(O)C(O)C(O)C(O)C1O` (stereo not shown) had a Log2FoldChange (sheet "Figure 5C") of -0.1047.

As to `CCCCC/C=C\C/C=C\C/C=C\C/C=C\CCCC(=O)O[C@H](COC(=O)CCCCCCCCCCCCCCCCC)COP(=O)(O)OC[C@H](N)C(=O)O`, the Log2FoldChange reads like this: (supplement sheet "Figure 5B") 0.02857; (sheet "Figure 5C") -0.3219.

`CC/C=C\C/C=C\C/C=C\C/C=C\C/C=C\C/C=C\CCC(=O)O[C@H](COC(=O)CCCCCCCCCCCCCCCCC)COP(=O)([O-])OCC[N+](C)(C)C` returned a Log2FoldChange (supplement sheet "Figure 5B") of -0.074.

Turning to `CC/C=C\C/C=C\C/C=C\C/C=C\C/C=C\C/C=C\CCC(=O)O[C@H](COC(=O)CCCCCCCCCCCCCCCCC)COP(=O)(O)OCCN`, the Log2FoldChange reads like this: (supplement sheet "Figure 5B") -0.152; (sheet "Figure 5C") -0.2009.

Compound `CSC=CC(O)C(O)C(=O)O` (stereo not shown) came in with a Log2FoldChange under setting [1] of 0.4222.

Regarding `O=C(O)c1c(O)c(Cl)cc(Br)c1O`, the Log2FoldChange (supplement sheet "Figure 5B") is given as -0.1203.

As for `CCCCCc1oc(CCC(=O)O)c(C(=O)O)c1C`, the Log2FoldChange under setting [2] is on record as -1.2863.

Turning to `CCCCCCCC/C=C\CCCCCCCCCCCCCC(=O)N[C@@H](CO[C@@H]1O[C@H](CO)[C@H](O)[C@H](OS(=O)(=O)O)[C@H]1O)[C@H](O)/C=C/CCCCCCCCCCCCC`, the Log2FoldChange (sheet "Figure 5C") is reported as -0.3959.

On to `CC(CCC[C@@H](C)[C@H]1CC[C@H]2[C@@H]3[C@H](O)CC4=CC(=O)CC[C@]4(C)[C@H]3CC[C@]12C)C(=O)O` (stereo partly shown), for which the Log2FoldChange under setting [1] turned out to be 0.3448.

As to `CC(C(=O)N1CCCC1C(=O)[O-])[N+](C)(C)C` (stereo not shown), the Log2FoldChange under setting [1] was determined as 0.7225.

`Nc1ncnc2c1ncn2[C@@H]1O[C@@H]2COP(=O)(O)O[C@H]2[C@H]1O`: under “sheet "Figure 5C"”, the Log2FoldChange was -0.2176.

In the case of `CCCCCCCCCCCCCCCCCCCCCC(=O)N[C@@H](COP(=O)([O-])OCC[N+](C)(C)C)[C@H](O)CCCCCCCCCCCCCCC`, the Log2FoldChange (supplement sheet "Figure 5B") was -0.1047.

With `CCC(NC(=O)CCC(N)C(=O)O)C(=O)O` (stereo not shown), the Log2FoldChange under setting [2] is recorded as -0.5995.

`CCCCCCCCCCCCCC=CC(O)C(CO[C@@H]1O[C@H](CO)[C@@H](O[C@@H]2O[C@H](CO)[C@H](O)[C@H](O)[C@H]2O)[C@H](O)[C@H]1O)NC(=O)CCCCCCCCCCCCCCC` (stereo partly shown) registered a Log2FoldChange under setting [1] of 0.4751.

The compound `CCCCCCCCCCCCCCCC(=O)N[C@@H](COP(=O)([O-])OCC[N+](C)(C)C)[C@H](O)CCCCCCCCCCCCCCC` registered a Log2FoldChange (sheet "Figure 5C") of -0.3401.

For the compound `O=C(O)[C@H]1OC(O)[C@H](O)[C@@H](O)[C@@H]1O` (mixture of isomers) [glucuronate], the Log2FoldChange under setting [1] was found to be 1.664.

`OC[C@H]1O[C@H](O[C@H]2[C@H](O)[C@@H](O)C(O)O[C@@H]2CO)[C@H](O)[C@@H](O)[C@@H]1O` (mixture of isomers) [maltose] yielded a Log2FoldChange (supplement sheet "Figure 5B") of -0.08927.

For the compound `CCCCC/C=C\C/C=C\CCCCCCCC(=O)OC[C@H](COP(=O)([O-])OCC[N+](C)(C)C)OC(=O)CCCCCCC/C=C\C/C=C\CCCCC` [1,2-dilinoleoyl-GPC (18:2/18:2)], the Log2FoldChange was 0.3785 under setting [1] and -0.08927 (sheet "Figure 5C").

Compound `CCCCC/C=C\C/C=C\CCCCCCCC(=O)OC[C@H](COP(=O)(O)OCCN)OC(=O)CCCCCCC/C=C\C/C=C\CCCCC` [1,2-dilinoleoyl-GPE (18:2/18:2)*] showed a Log2FoldChange under setting [1] of 0.4222.

For `CCCCCCCC/C=C\CCCCCCCC(=O)OC[C@H](COP(=O)([O-])OCC[N+](C)(C)C)OC(=O)CCCCCCC/C=C\CCCCCCCC` [1,2-dioleoyl-GPC (18:1/18:1)], the Log2FoldChange (sheet "Figure 5C") is on record as -0.1361.

On to `CCCCCCCC/C=C\CCCCCCCC(=O)OC[C@H](COP(=O)(O)OCCN)OC(=O)CCCCCCC/C=C\CCCCCCCC` [1,2-dioleoyl-GPE (18:1/18:1)], for which the Log2FoldChange (sheet "Figure 5C") is -0.2176.

`CCCCCCCC/C=C\CCCCCCCC(=O)OC[C@H](COP(=O)(O)OC[C@H](N)C(=O)O)OC(=O)CCCCCCC/C=C\CCCCCCCC` [1,2-dioleoyl-GPS (18:1/18:1)] registered a Log2FoldChange (sheet "Figure 5C") of -0.3959.

`CCCCCCCCCCCCCCCC(=O)OC[C@H](COP(=O)([O-])OCC[N+](C)(C)C)OC(=O)CCCCCCCCCCCCCCC` [1,2-dipalmitoyl-GPC (16:0/16:0)] showed a Log2FoldChange under setting [1] of 0.3896 and a Log2FoldChange (sheet "Figure 5C") of -0.2345.

The compound `CCCCCCCCCCCCCCCC(=O)OC[C@H](COP(=O)(O)OCCN)OC(=O)CCCCCCCCCCCCCCC` [1,2-dipalmitoyl-GPE (16:0/16:0)*] came in with a Log2FoldChange under setting [1] of 1.014.

On to `CCCCCCCCCCCCCCCCCC(=O)OC[C@H](COP(=O)([O-])OCC[N+](C)(C)C)OC(=O)CCCCCCCCCCCCCCCCC` [1,2-distearoyl-GPC (18:0/18:0)], for which the Log2FoldChange under setting [1] stood at 0.433.

Take `OC[C@H]1OC[C@H](O)[C@@H](O)[C@@H]1O` [1,5-anhydroglucitol (1,5-AG)]: the Log2FoldChange reads like this: under setting [2], -0.2009; (sheet "Figure 5C") -0.152.
